Results are given in words; binding and its absence hold for the method and conditions named. Some results given as binding are weak or reduced against the parent protein; the word gives no strength. No end group written: not given here.
Experiments:
[1] = biological target: PD-L1 proteins (R&D systems) (UniProt Q9NZQ7); assay: SPR
[2] = biological target: PD-L1 on 786-O cells (PD-L1 overexpressing human renal cell carcinoma line) and MCF-7 cells (low PD-L1) (human) (UniProt Q9NZQ7); assay: fluorescence microscopy of 786-O and MCF-7 cells
[3] = biological target: PD-L1 proteins (R&D systems) (UniProt Q9NZQ7); assay: SPR, PD-L1 immobilized, conjugate injected at 0.1-0.8 µM
[4] = biological target: PD-L1 on 786-O cells (PD-L1 overexpressing human renal cell carcinoma line) and MCF-7 cells (low PD-L1) (human) (UniProt Q9NZQ7); assay: fluorescence microscopy (rhodamine), cells treated for 1 h
[5] = biological target: PD-L1 proteins (R&D systems) (UniProt Q9NZQ7); assay: SPR, PD-L1 immobilized, peptide injected at 25-200 µM

The chains behind the UniProt entries cited, without tags or fusion partners. Where a name states a change or a piece, a line headed by the entry shows the natural chain unless it says otherwise. Residues count along the entry.
UniProt Q9NZQ7: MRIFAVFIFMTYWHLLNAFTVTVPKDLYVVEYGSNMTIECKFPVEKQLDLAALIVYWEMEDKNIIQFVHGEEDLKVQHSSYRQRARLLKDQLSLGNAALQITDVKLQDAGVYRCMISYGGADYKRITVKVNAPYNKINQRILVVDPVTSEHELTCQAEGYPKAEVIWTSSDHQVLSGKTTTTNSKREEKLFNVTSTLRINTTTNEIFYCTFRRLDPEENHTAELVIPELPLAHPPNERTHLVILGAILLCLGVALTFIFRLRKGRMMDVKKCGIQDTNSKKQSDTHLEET
PD-L1 on 786-O cells (PD-L1 overexpressing human renal cell carcinoma line) and MCF-7 cells (low PD-L1): residues 19-290 of Q9NZQ7
PD-L1 proteins (R&D systems): residues 19-239 of Q9NZQ7

Measured: binding

B1: G7-pL1TZ (pL1TZ peptides conjugated to G7 dendrimer) (peptide)
peptide: HKVWHWESPSGQWDTWAA
modifications: conjugated to the dendrimer surface through the introduced lysine
not listed: [5]
binds: all other assays above

B2: pL1TZ (Trp-Zip βH2 mutant peptide) (peptide)
peptide: HKVWHWESPSGQWDTWAA-NH2
notes: Free tryptophan-zipper peptide; also called pLiTZ
binds: [1] | [5]

— patent publication US20210187120A1 (WISCONSIN ALUMNI RESEARCH FOUNDATION, published 2021)
